Laboratory results from patent publication US4303660A, “Pyrazolo[1,5-c]quinazoline derivatives and analgesic compositions containing them” (priority 1979, dated 1981).

Tests used:
[1] = test system: gastric acid secretion; type: in vivo; details: 50 mg/kg p.o.; rats
Source text: The influence of the compounds of the invention on the gastric acid secretion was studied on rats weighing 170 to 260 g according to Shay [Gastroenterology, 5, 43 (1945)].

[2] = in vivo; details: printed under the reference substance in Table III

Compound: CN1[C@@H]2CC[C@H]1C[C@@H](OC(=O)C(CO)c1ccccc1)C2 (some centres unmarked) [atropine, reference compound]
- Inhibition of gastric acid secretion, percentage [1]: about 45 percentage
- LD50 [2]: 200 mg/kg
